For assay [1], the target named is T1, PBX1a (UniProt P40424).
T1 sequence: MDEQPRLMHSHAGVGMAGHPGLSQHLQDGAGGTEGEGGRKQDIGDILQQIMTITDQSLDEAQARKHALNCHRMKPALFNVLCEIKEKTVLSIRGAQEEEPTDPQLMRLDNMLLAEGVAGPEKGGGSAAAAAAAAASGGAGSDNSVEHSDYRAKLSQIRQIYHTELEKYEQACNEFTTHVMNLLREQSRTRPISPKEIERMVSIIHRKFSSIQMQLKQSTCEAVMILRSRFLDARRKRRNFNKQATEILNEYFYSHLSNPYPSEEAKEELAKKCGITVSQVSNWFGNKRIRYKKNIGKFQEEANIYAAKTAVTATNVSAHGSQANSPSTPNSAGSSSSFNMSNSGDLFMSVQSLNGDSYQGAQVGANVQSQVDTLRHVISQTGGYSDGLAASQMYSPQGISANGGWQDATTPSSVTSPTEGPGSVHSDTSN
Description: native gel or EMSA.

Assay [2] addresses T1, PBX1a. Kind of assay: native gel or EMSA. The source holds these as a separate data set. A general note: Mobility shift assays separate free from complexed probe on a gel.

This note sets out measurements from article doi:10.1101/871640.

Like-named read-outs stand apart in the source and are kept apart here. No constants are given. Whether binding was seen depends on the method and setting. Binding can be weak; no strength is given.

In the case of MEIS2 (isoform 1) (mouse), the binding entry with PBX1a [1] and with PBX1a [2] was “binds” throughout.
